Assay results from PMC10940091.
No constants are given. Whether binding was seen depends on the method and setting. In cells and extracts the contact can be indirect. For part of these data: A result given as binding can be weak or reduced; the word gives no strength.

Chains of the proteins cited; added tags and fusions are not shown. Lines headed by an entry give the natural chain unless they say otherwise; changes in a name come on top.
UniProt Q9ULU4: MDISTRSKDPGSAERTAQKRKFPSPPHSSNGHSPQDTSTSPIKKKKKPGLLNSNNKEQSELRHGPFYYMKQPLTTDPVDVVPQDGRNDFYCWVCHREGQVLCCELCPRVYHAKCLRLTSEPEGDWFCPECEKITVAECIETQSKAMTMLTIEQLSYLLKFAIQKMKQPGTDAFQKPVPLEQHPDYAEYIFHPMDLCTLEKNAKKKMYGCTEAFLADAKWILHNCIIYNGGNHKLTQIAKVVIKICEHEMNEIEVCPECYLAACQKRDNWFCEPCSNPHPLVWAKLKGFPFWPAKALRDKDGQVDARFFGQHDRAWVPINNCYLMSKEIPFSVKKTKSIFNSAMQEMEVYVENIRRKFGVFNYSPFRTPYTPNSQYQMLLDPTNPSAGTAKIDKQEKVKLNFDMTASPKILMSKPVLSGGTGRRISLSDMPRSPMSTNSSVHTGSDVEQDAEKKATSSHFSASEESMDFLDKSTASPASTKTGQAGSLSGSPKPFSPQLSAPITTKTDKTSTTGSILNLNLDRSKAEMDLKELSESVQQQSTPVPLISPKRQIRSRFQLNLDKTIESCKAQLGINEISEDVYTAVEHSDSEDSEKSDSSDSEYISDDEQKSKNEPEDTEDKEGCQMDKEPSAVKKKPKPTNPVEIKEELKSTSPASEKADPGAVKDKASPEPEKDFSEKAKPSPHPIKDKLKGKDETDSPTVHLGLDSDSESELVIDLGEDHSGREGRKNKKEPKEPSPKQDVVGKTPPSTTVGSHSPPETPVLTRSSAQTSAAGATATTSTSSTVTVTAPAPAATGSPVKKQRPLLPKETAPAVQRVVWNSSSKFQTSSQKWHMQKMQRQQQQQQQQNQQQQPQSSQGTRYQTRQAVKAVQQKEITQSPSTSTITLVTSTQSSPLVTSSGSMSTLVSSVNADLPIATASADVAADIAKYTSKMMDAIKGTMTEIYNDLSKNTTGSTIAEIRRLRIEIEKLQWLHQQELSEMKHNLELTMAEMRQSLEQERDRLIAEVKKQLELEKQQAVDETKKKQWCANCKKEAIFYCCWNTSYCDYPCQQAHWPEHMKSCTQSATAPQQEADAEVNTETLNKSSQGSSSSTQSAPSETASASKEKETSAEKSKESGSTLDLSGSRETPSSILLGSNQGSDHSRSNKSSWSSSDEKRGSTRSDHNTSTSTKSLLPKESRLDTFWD
UniProt Q16236: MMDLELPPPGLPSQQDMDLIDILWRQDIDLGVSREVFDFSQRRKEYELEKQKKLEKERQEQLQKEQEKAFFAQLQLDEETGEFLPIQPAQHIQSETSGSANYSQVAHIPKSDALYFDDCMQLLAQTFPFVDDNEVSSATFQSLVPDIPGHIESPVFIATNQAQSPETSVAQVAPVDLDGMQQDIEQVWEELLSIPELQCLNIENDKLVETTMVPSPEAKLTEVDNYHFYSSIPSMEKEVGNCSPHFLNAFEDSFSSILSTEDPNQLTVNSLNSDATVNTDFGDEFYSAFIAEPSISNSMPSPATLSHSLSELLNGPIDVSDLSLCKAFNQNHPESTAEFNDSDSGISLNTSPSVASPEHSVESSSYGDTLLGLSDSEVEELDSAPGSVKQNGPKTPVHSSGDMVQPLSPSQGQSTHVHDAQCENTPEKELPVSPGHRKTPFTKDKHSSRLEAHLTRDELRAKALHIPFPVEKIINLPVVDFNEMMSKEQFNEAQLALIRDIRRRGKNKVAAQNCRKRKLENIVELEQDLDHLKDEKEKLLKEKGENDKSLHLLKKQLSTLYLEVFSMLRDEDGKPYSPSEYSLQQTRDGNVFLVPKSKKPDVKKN

What was measured:
Test in all cases: co-IP; HEK293T cells cotransfected with Flag-ZMYND8 and NRF2-ETGE/KKDD-V5 constructs; NETN lysis buffer; IP with anti-Flag antibody or IgG, protein A/G magnetic beads, 4°C; immunoblot with anti-V5 and anti-Flag
[1] = biological target: C-3-deleted (ΔC-3) Flag-ZMYND8 (UniProt Q9ULU4)
[2] = biological target: PBP domain-deleted (ΔPBP) Flag-ZMYND8 (UniProt Q9ULU4)
[3] = biological target: C-2-deleted (ΔC-2) Flag-ZMYND8 (UniProt Q9ULU4)
[4] = biological target: C-1-deleted (ΔC-1) Flag-ZMYND8 (UniProt Q9ULU4)
[5] = biological target: interfragment-deleted (ΔInter) Flag-ZMYND8 (UniProt Q9ULU4)
[6] = biological target: MYND-deleted (ΔMYND) Flag-ZMYND8 (UniProt Q9ULU4)

- binding [1]: binds
- binding [2]: no binding
- binding [3]: binds
- binding [4]: binds
- binding [5]: no binding
- binding [6]: binds
Substance: FL NRF2-V5 with ETGE mutation into KKDD (NRF2-ETGE/KKDD-V5) (from UniProt Q16236)
